The test deals with T1, Lactobacillus brevis ATCC 8287 SlpA surface layer protein (Lactobacillus brevis ATCC 8287) (UniProt Q05044).
T1 sequence (looked up): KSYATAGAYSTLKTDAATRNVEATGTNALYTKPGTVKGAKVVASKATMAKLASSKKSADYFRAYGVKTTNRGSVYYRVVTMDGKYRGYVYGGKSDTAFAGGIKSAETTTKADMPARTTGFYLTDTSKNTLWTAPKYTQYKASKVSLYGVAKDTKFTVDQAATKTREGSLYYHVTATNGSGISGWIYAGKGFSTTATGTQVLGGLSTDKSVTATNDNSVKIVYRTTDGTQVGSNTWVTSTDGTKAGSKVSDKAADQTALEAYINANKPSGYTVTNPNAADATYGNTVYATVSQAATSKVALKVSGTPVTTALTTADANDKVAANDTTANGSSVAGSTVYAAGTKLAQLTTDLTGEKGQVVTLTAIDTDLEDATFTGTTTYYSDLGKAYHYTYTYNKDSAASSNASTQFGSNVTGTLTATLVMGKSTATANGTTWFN
The test can be described thus: SPR (BIAcore 3000), SlpA immobilised. In general terms: In SPR one partner is held on a chip, and binding of the other changes the refractive index at the surface.

Chains of the proteins cited; added tags and fusions are not shown. Lines headed by an entry give the natural chain unless they say otherwise; changes in a name come on top.
UniProt P02671: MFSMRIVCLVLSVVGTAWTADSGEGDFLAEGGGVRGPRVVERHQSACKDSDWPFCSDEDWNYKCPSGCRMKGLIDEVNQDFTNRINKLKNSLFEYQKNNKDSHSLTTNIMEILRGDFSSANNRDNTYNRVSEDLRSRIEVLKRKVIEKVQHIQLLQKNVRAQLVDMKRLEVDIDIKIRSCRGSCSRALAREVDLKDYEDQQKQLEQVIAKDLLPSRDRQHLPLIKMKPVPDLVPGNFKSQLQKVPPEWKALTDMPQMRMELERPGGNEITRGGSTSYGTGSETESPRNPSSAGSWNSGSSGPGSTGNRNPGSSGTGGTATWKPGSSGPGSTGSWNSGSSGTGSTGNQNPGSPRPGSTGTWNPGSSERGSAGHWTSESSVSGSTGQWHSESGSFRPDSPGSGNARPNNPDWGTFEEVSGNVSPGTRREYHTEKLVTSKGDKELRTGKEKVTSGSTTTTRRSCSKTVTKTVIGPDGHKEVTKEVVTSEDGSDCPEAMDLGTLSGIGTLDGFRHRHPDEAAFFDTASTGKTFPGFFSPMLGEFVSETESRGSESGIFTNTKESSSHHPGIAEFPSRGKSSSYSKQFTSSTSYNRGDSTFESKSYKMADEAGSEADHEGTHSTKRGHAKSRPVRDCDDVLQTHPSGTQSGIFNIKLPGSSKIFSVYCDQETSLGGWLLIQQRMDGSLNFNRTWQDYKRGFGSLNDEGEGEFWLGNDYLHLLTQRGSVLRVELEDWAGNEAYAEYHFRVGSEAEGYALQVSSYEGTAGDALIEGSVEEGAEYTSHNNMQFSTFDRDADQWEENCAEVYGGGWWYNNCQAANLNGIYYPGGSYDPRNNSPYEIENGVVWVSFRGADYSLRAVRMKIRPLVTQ

These are yes or no findings as the source states them, for the method shown. Some results given as binding are weak or reduced against the parent protein; the word gives no strength.

“Fibrinogen (human plasma) (from UniProt P02671 20-629; P02675 31-491; P02679 27-453)”: the binding entry is “binds”.

The values above are taken from patent publication US20090214662A1 (UNIVERSITY OF MARYLAND BALTIMORE, published 2009).
